{"sequences": {"note": "Protein sequences, listed by entry. Tags and fused reporters are not part of them.", "UniProt Q00534": "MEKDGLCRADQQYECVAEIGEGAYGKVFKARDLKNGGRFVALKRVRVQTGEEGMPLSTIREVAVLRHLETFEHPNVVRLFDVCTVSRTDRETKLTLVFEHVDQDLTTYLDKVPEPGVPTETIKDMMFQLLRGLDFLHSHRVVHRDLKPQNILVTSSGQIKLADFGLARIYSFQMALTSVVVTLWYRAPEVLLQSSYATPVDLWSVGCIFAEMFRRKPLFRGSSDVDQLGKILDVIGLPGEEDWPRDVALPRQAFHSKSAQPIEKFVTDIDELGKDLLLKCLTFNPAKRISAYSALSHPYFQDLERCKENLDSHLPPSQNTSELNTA", "UniProt O14818": "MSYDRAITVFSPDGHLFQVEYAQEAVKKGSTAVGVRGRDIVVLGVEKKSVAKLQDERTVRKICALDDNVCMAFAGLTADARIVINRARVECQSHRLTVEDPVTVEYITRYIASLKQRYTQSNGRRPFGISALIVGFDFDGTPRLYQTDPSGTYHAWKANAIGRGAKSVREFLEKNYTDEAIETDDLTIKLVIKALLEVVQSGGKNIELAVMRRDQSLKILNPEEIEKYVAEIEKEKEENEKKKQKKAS", "UniProt Q06587": "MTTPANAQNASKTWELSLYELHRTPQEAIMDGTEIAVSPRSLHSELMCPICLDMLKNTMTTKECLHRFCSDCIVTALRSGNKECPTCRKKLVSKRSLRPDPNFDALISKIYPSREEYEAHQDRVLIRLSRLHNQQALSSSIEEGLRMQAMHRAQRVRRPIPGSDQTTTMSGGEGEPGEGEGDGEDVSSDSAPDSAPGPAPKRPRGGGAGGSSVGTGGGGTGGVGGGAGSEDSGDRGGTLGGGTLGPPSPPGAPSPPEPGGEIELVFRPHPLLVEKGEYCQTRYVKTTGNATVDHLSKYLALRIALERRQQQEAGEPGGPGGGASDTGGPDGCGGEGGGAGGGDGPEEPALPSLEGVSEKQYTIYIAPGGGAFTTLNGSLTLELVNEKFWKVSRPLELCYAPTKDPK"}, "source": "paper PMC11481398", "molecules": {"B1": {"name": "UHRF2 (protein, UniProt Q96PU4 1-802)", "chain": "MWIQVRTIDGSKTCTIEDVSRKATIEELRERVWALFDVRPECQRLFYRGKQLENGYTLFDYDVGLNDIIQLLVRPDPDHLPGTSTQIEAKPCSNSPPKVKKAPRVGPSNQPSTSARARLIDPGFGIYKVNELVDARDVGLGAWFEAHIHSVTRASDGQSRGKTPLKNGSSCKRTNGNIKHKSKENTNKLDSVPSTSNSDCVAADEDVIYHIQYDEYPESGTLEMNVKDLRPRARTILKWNELNVGDVVMVNYNVESPGQRGFWFDAEITTLKTISRTKKELRVKIFLGGSEGTLNDCKIISVDEIFKIERPGAHPLSFADGKFLRRNDPECDLCGGDPEKKCHSCSCRVCGGKHEPNMQLLCDECNVAYHIYCLNPPLDKVPEEEYWYCPSCKTDSSEVVKAGERLKMSKKKAKMPSASTESRRDWGRGMACVGRTRECTIVPSNHYGPIPGIPVGSTWRFRVQVSEAGVHRPHVGGIHGRSNDGAYSLVLAGGFADEVDRGDEFTYTGSGGKNLAGNKRIGAPSADQTLTNMNRALALNCDAPLDDKIGAESRNWRAGKPVRVIRSFKGRKISKYAPEEGNRYDGIYKVVKYWPEISSSHGFLVWRYLLRRDDVEPAPWTSEGIERSRRLCLRLQYPAGYPSDKEGKKPKGQSKKQPSGTTKRPISDDDCPSASKVYKASDSAEAIEAFQLTPQQQHLIREDCQNQKLWDEVLSHLVEGPNFLKKLEQSFMCVCCQELVYQPVTTECFHNVCKDCLQRSFKAQVFSCPACRHDLGQNYIMIPNEILQTLLDLFFPGYSKGR"}}, "note": "Results are given in words; binding and its absence hold for the method and conditions named. In cells and extracts the contact can be indirect. A yes stands for co-enrichment or nearness to the bait. Other partners may have been found. A no says only that the protein was not detected with the bait.", "data": [{"target": "Cyclin-dependent kinase 6 (human (endogenous in H69AR and H446DDP)) (UniProt Q00534)", "assay": "affinity purification with mass spectrometry; proteomics of proteins precipitated with CDK6 antibody versus IgG from H69AR cells treated with PD", "values": [{"molecule": "PSMA7 (from UniProt O14818 1-248)", "binding": "no binding"}, {"molecule": "RING1 (from UniProt Q06587 1-406)", "binding": "binds"}, {"molecule": "B1", "binding": "binds"}]}]}
